According to article PMC9803678:

Tests used:
[1] = target: T1, Myc-SNAPIN (UniProt O95295); assay: co-IP; HEK293 cells transfected 24 h with Myc-SNAPIN (WT, T14A or T14E) and GFP-Dynein, HA-Dynein A or HA-Dynein B, with or without Flag-DYRK3-WT or Flag-DYRK3-KM; some cells treated 6 h with 1 uM GSK-626616 or 6 h with DMEM (serum deprivation); lysates immunoprecipitated with anti-Myc antibody …
T1 sequence: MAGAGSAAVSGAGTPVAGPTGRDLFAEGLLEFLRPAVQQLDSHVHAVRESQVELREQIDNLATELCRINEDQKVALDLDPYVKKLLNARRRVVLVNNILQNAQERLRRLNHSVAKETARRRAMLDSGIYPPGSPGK

[2] = target: T2, Myc-SNAPIN-T14E (UniProt O95295); assay: as above
T2 sequence: T1 sequence with T14E

binding [1] | binding [2] | Substance
binds | binds | GFP-Dynein
binds |  | HA-Dynein A
binds |  | HA-Dynein B

Changes are numbered by the printed parent chain. Results are given in words; binding and its absence hold for the method and conditions named. In cells and extracts the contact can be indirect. A result given as binding can be weak or reduced; the word gives no strength. Tags and fused reporters may be left off the sequences shown.
